In the supplement of paper PMC12578635:
± gives the standard deviation of the averaged measurements. This is one part of the list. Most values come without repeats; read them as rough.

tested on: RAW 264.7 macrophages infected with S. aureus JE2-lux; assay: host macrophage viability (CellTiter-Fluor) relative to DMSO vehicle; higher = more viable host cells; conditions: 10 µM; treatment time 4 h; gentamicin 50 µg/ml

Row | Structure (SMILES) | host macrophage viability [%]
1 | O=C(O)CCc1nnc(SCC(=O)Nc2ccc(Cl)cc2)[nH]c1=O | 110
2 | CSc1nc2ccc3nc(NC(=O)C4COc5ccccc5O4)sc3c2s1 (centres undefined) | 115
3 | Cc1nc(N2CCOCC2)ncc1C(=O)NC1CCCC1 | 111
4 | CCN1C(=O)NC2(CCN(CC(=O)Nc3ccc4c(c3)OCO4)CC2)C1=O | 110
5 | COc1ccc(CCNC(=O)Cn2ncn3nc4c(c3c2=O)CCCC4)cc1OC | 120
6 | Cc1ccc(-n2ccn3c(CCCC(=O)O)nnc3c2=O)cc1C | 86.3
7 | CCOCCCNC(=O)Cn1nc(-c2ccco2)cc(N)c1=O | 117
8 | Cc1ccc(-c2nc(Cn3nnc(-c4nc(-c5ccccc5Cl)no4)c3C)c(C)o2)cc1 | 123
9 | CCOc1cccc(C2Nc3c(C)cc(C)cc3[C@H]3OCCC[C@@H]23)c1OC (some centres undefined) | 120
10 | O=C1NC(c2ccc3c(c2)OCO3)C(C(=O)c2ccccc2)C(O)(C(F)(F)F)N1 (centres undefined) | 125
11 | N#C/C(=C\c1ccc(-c2ccccc2[N+](=O)[O-])o1)C(=O)Nn1cnnc1 | 101 ± 21
12 | COc1ccc(NC(=O)N(CCc2ccc(OC)c(OC)c2)Cc2cc3cc(C)ccc3[nH]c2=O)cc1 | 112
13 | COc1ccccc1/C=C/C=C(\C#N)c1nc2ccccc2c(=O)[nH]1 | 117
14 | CN(Cc1cccc2ncccc12)C(=O)c1cnn(-c2ccc(F)cc2)c1 | 122
15 | CCOC(=O)c1sc(NC(=O)CSc2ncnc3sc(C)c(C)c23)c(C(=O)OCC)c1C | 101 ± 10
16 | CC(=O)Nc1ccc(NC(=O)c2ncoc2-c2ccc(F)cc2)cc1C | 112
17 | COC(CNC(=O)c1c(O)nc2ccccn2c1=O)OC | 133
18 | Cc1nc(Nc2ccccc2)c([N+](=O)[O-])c(Nc2ccccc2)n1 | 106
19 | O=C(c1cnc2ccccc2c1S(=O)(=O)c1cccc(F)c1)N1CCSCC1 | 112
20 | O=C(CSc1nc(C2CC2)nc2ccccc12)Nc1ccc2c(c1)OCO2 | 115
21 | Cn1c(=O)c2c(nc(NCc3ccccc3)n2Cc2cccc3ccccc23)n(C)c1=O | 129
22 | CCn1/c(=N\C(=O)CS(=O)(=O)c2ccccc2)sc2cc([N+](=O)[O-])ccc21 | 122
23 | Cc1nc2nc(Cc3cccc(F)c3)nn2c(NCc2cccs2)c1C | 126
24 | O=C(CCC(=O)Nc1noc2ccccc12)NCCc1ccc(Cl)cc1 | 78.2
25 | O=C(/C=C/c1ccccc1)Nc1nnc(-c2ccc(F)cc2)o1 | 117
26 | c1coc(-c2nn3c(-c4ccco4)nnc3s2)c1 | 108

Row | Structure (SMILES) | host macrophage viability [%]
27 | COc1ccc(CCNC(=O)C(=O)Nc2ccc(F)c(F)c2)cc1 | 110
28 | CCOc1ccc(NC(=S)NCCNc2nc3cc(C)cc(C)c3cc2C#N)cc1 | 149
29 | O=C1NC(c2ccc(F)cc2)C(C(=O)c2cccs2)C(O)(C(F)(F)F)N1 (centres undefined) | 112
30 | COc1ccc2nc(CN[C@@H]3CCC(=O)N[C@H]3c3cc(F)cc(F)c3)ccc2c1 | 110
31 | COc1ccc2cc(C)c3nn(CCNC(=O)c4cscn4)c(=O)n3c2c1 | 123
32 | N#Cc1ccccc1NC(=O)C(=O)NCCSc1nc(-c2ccccc2)c[nH]1 | 120
33 | Cc1cc2oc(C(=O)NC3CCCOC3)cc(=O)c2cc1C (centres undefined) | 99.3
34 | CC(=O)Nc1nc2cc(NC(=O)c3cccnc3)ccc2s1 | 126
35 | O=S(=O)(c1cccc2cccnc12)N1CCN(Cc2noc3ccccc23)CC1 | 125
36 | CCOC(=O)c1nn(-c2ccccc2)c(=O)cc1OCC(=O)Nc1cc(OC)cc(OC)c1 | 103
37 | O=C(NCc1ccc2c(c1)OCO2)c1ccc(=O)[nH]n1 | 114
38 | Cc1c(Cc2ccc3c(c2)OCO3)sc(NC(=O)c2ccc(Br)s2)c1C#N | 147
39 | Cc1cccc(-c2nc3c4ccccc4n(CC(=O)Nc4ccccc4Cl)c(=O)n3n2)c1 | 109
40 | CCOC(=O)c1ccccc1NC(=O)CSc1nc2[nH]ncc2c(=O)[nH]1 | 117
41 | COc1ccc(Cl)cc1NC(=O)CSc1nnc2c3cc(C)ccc3n(C)c2n1 | 109
42 | Cc1cc2c(c(=O)n1CCCN1CCOCC1)C(c1ccc(Cl)cc1)C(C#N)=C(N)O2 (centres undefined) | 106
43 | Cc1cc(C)n(-c2cc(Nc3ccc4c(c3)OCCO4)ncn2)n1 | 102
44 | N#Cc1ccc(-c2ccco2)nc1SCC(=O)NCc1ccc2c(c1)OCO2 | 120
45 | CCc1ccccc1NS(=O)(=O)c1cc(-c2ccn[nH]2)cs1 | 118
46 | Cn1ncc2c1CCc1sc(NC(=O)CC3SC(=O)NC3=O)nc1-2 (centres undefined) | 102
47 | O=C1c2oc3ccccc3c(=O)c2C(c2ccccc2)N1Cc1cccnc1 (centres undefined) | 116
48 | CN1C(=O)N(CC(=O)NC2CCCC2)c2cccnc2N1C | 128
49 | CC1Cc2ccccc2N1Cc1nnc(-c2ccccc2)o1 (centres undefined) | 126
50 | COc1nn(C)cc1C(=O)Nc1ccc(C)c(C)c1 | 115
51 | Cc1cccc(C)c1OCCn1c(CO)nc2ccccc21 | 148
52 | COc1ccc(-n2ccnc(SCC(=O)NCc3ccccc3)c2=O)cc1OC | 127

Row | Structure (SMILES) | host macrophage viability [%]
53 | CC(=O)c1ccc(NC(=O)CSc2ncc(C(=O)Nc3ccc(C)c(C)c3)c(=O)n2C)cc1 | 123
54 | CCCc1cc(=O)[nH]c2nnc(SCC(=O)NC3CCCC3)n12 | 106
55 | O=C(CSC1=NS(=O)(=O)c2ccccc2N1)NCC1CCCO1 (centres undefined) | 119
56 | O=C(CSc1ncc(S(=O)(=O)c2ccc(Cl)cc2)c(=O)[nH]1)Nc1ccccc1F | 106
57 | CC1CCN(S(=O)(=O)c2ccc(C(=O)Nc3cc(C(F)(F)F)ccc3Cl)cc2)CC1 | 123
58 | COCCCNC(=O)Cn1c(-c2cccs2)cc2cccnc21 | 146
59 | CCc1cccc(NC(=O)c2cc3n(n2)CCCN(Cc2ccccc2)C3=O)c1 | 120
60 | CCOC(=O)C1=C(C)NC(O)=NC1c1cc(Br)c(O)c(OC)c1 (centres undefined) | 116
61 | Cc1cc2nc(NC(=O)c3ccc(S(=O)(=O)N4CCCC(C)C4)cc3)sc2cc1C (centres undefined) | 125
62 | Cc1ccc(-c2nc3c(c(SCC(N)=O)n2)Cc2cc(C)ccc2O3)cc1 | 128
63 | O=C(Nc1cccc(F)c1)c1cnc2n(c1=O)CCS2 | 119
64 | COC(=O)C1=C(N)Oc2cc(C)[nH]c(=O)c2C1c1cccc(OC)c1 (centres undefined) | 119
65 | CCOC(=O)c1ccsc1NC(=O)c1coc2ccccc2c1=O | 124
66 | O=C1CCc2cc(S(=O)(=O)NCc3ccco3)cc3c2N1CC3 | 111
67 | CCOC(=O)c1cccc(NC(=O)C2CCN(c3nccc4c(C)nn(CC)c34)CC2)c1 | 138
68 | Cn1c2ccccc2c2nnc(SCC(=O)Nc3ccc4c(c3)CCC4)nc21 | 109
69 | CCCn1cc(C(=O)Nc2ccc3c(c2)OCCO3)c2nn(-c3ccccc3)c(=O)c-2c1 | 99.5
70 | O=C(COc1ccccc1C1CC(c2ccccc2)=NN1C(=O)c1ccccc1)NCCO (centres undefined) | 108
71 | O=c1[nH]c(SC/C=C/c2ccccc2)nc2sc3c(c12)CCC3 | 99.3
72 | Cn1c(=O)n(CC(N)=O)c(=O)c2c1nc1n2CCCN1c1ccc(Br)cc1 | 118
73 | COc1ccccc1NC(=O)c1cnn2c(=O)cc(C(C)C)[nH]c12 | 100
74 | COc1ccc(OC)c2sc(N(CCCn3ccnc3)C(=O)c3ccco3)nc12 | 100
75 | O=C(/C=C/c1cccs1)Nc1nc2c(cc3c4c(cccc42)CC3)s1 | 124 ± 12
76 | COc1ccc(NC2CC(=O)N(c3cc([N+](=O)[O-])ccc3C)C2=O)cc1 (centres undefined) | 119
77 | NC(=O)c1c(NC(=O)/C=C/c2cccs2)sc2c1CCCCC2 | 107 ± 2.6
78 | COCCCNC(=O)c1cc(-c2ccc(C)cc2)nc2n[nH]c(-c3ccc(F)cc3)c12 | 114

Row | Structure (SMILES) | host macrophage viability [%]
79 | Cc1nc2nc(Cc3cccc(F)c3)nn2c(N2CCN(Cc3ccc4c(c3)OCO4)CC2)c1C | 130
80 | Cc1cccc(C2(O)CCN(C(=O)c3sc4ncn(C)c(=O)c4c3C)CC2)c1 | 129
81 | COc1ccc(CC(=O)Nc2cc(NC(=O)c3cccs3)ccc2C)cc1OC | 124
82 | Cc1cc2nc(C3CCN(CC(=O)Nc4ccccc4C(F)(F)F)CC3)[nH]c2cc1C | 116
83 | CCOC(=O)c1[nH]c2ccc(OC)cc2c1NC(=S)N1CCN(C(=O)OCC)CC1 | 128
84 | COc1cc(NC(=O)c2cnc(C)cn2)ccc1NC(=O)C1CCCCC1 | 111
85 | CC1CCN(C(=O)c2cnc3ccc(Cl)cc3c2O)CC1 | 104
86 | Cn1c(=O)c2c(nc3n2CC(COc2ccc(Cl)cc2)O3)n(C)c1=O (centres undefined) | 130
87 | CC(C)c1csc(-c2csc(S(=O)(=O)NC3CCCCC3)c2)n1 | 70
88 | CC(=O)Nc1cccnc1-c1ccc(C(=O)NC2CCCc3ccccc32)cc1 (centres undefined) | 107
89 | CCN(c1ccccc1)S(=O)(=O)c1ccc2[nH]c(=O)[nH]c2c1 | 121
90 | O=C(Nc1ccccc1F)c1ccnc(N2CCC(C(=O)NCc3ccc(F)cc3)CC2)c1 | 136
91 | CCCCOc1ccc(-c2cc3c(N4CCC(C(=O)N5CCCC5)CC4)nccn3n2)cc1 | 128
92 | CCc1ccccc1NC(=O)CN1N=NC2C(=O)N(c3ccc(F)c(F)c3)C(=O)C21 (centres undefined) | 103
93 | CCOC(=O)c1ccc(NC(=O)CSc2ncnc3c2nnn3Cc2ccccc2)cc1 | 111 ± 8.7
94 | COc1ccc(NC(=O)c2ccc(Cn3c(=O)[nH]c4ccsc4c3=O)cc2)cc1 | 131
95 | O=C(Nc1ccccn1)c1cccn2c(-c3ccccc3F)nnc12 | 114
96 | COc1cccc2sc(N(CCCn3ccnc3)C(=O)c3ccc4c(c3)OCCO4)nc12 | 98.7
97 | COc1cccc(NC(=O)CSc2nnc(Cc3ccc(Cl)cc3)c(=O)[nH]2)c1 | 104
98 | CC1CCc2c(sc3ncn4c(=O)n(CCC(N)=O)nc4c23)C1 (centres undefined) | 120
99 | Cc1cc(C)n(Cc2c(C(=O)NCc3c(C)nn(C)c3C)noc2C)n1 | 115
100 | Cc1cc(-c2csc(S(=O)(=O)N3CCN(CCOc4ccc(Cl)cc4)CC3)c2)on1 | 103
101 | Cc1c(S(=O)(=O)c2ccccc2)nnn1-c1ccccc1 | 116
102 | S=C(Nc1ccccc1Cl)NC1CC2CCC(C1)N2Cc1ccccc1 (centres undefined) | 105
103 | Cc1nn(S(=O)(=O)c2ccccc2[N+](=O)[O-])c(C)c1Sc1ccccc1 | 101
104 | O=C1CCc2cc(S(=O)(=O)NCC(c3ccc(F)cc3)N3CCCC3)ccc2N1 (centres undefined) | 102

Entries shown so far that contain a cyano group:
Row | Structure (SMILES) | host macrophage viability [%]
11 | N#C/C(=C\c1ccc(-c2ccccc2[N+](=O)[O-])o1)C(=O)Nn1cnnc1 | 101 ± 21
13 | COc1ccccc1/C=C/C=C(\C#N)c1nc2ccccc2c(=O)[nH]1 | 117
28 | CCOc1ccc(NC(=S)NCCNc2nc3cc(C)cc(C)c3cc2C#N)cc1 | 149
32 | N#Cc1ccccc1NC(=O)C(=O)NCCSc1nc(-c2ccccc2)c[nH]1 | 120
38 | Cc1c(Cc2ccc3c(c2)OCO3)sc(NC(=O)c2ccc(Br)s2)c1C#N | 147
42 | Cc1cc2c(c(=O)n1CCCN1CCOCC1)C(c1ccc(Cl)cc1)C(C#N)=C(N)O2 (centres undefined) | 106
44 | N#Cc1ccc(-c2ccco2)nc1SCC(=O)NCc1ccc2c(c1)OCO2 | 120
